The text below walks through data of patent US4001207A, “Tertiary-aliphatic amidazo compounds” (priority 1971, dated 1977).

Some compounds share one wording; it may come from a single statement.

The nature of one data set: Oxidation of iodide ion to free iodine.
Settings: not given
As for `CN(C)C(=O)N=NC(C)(C)C` [XV, tert.-butylazo-N,N-dimethylformamide], the “oxidation of iodide ion” value is listed as “oxidized iodide ion to free iodine”.

Take `COC(=O)CNC(=O)N=NC(C)(C)C` [XVI, tert.-butylazo-N-carbmethoxymethylformamide]: the “oxidation of iodide ion” value is given as “oxidized iodide ion to free iodine”.

For `CC(C)(C)N=NC(=O)NCC(=O)O` [XVII, tert.-butylazo-N-carboxymethylformamide], the “oxidation of iodide ion” value is “oxidized iodide ion to free iodine”.

For `CC(C)(N=NC(N)=O)c1ccccc1` [XVIII, Tert.-cumylazoformamide], the “oxidation of iodide ion” value is “oxidized iodide ion to free iodine”.

Take `CC(C)(C)N=Nc1nc(N=NC(C)(C)C)nc(N=NC(C)(C)C)n1` [XXI, 2,4,6-Tri-(tert.-butylazo)-1,3,5-triazine]: the “oxidation of iodide ion” value is “oxidized iodide ion to free iodine”.

A further data set can be described thus: Emulsion polymerization of ethyl acrylate. The note with it: 3.65 × 10^-^4 moles initiator, 85°-87° C.; listed as α-tert-butylazo-α-methyl-γ-carboxy-butyronitrile.
As to `CC(C)(C)N=NC(C)(C#N)CCC(=O)O` (stereo not drawn) [Example X, alpha-tert.-butylazo-alpha-methyl-gamma-carboxybutyronitrile], the “conversion of monomer to polymer” value is recorded as 94%.

The next data set is described as follows: Curing an unsaturated polyester-styrene resin. The settings on record: 180° F. (82.2° C.).
Consider `CC(C)(C)N=NC(C)(C#N)C1CC1` (stereo not drawn) [Example XII, Alpha-tert-butylazo-alpha-cyclopropylpropionitrile], for which the “time to peak exotherm” value turned out to be 3.3 min.

The same data set, now with this note: 180° F. (82.2° C.), 1.0 weight per cent loading.
For the compound `CC(C)CC(C#N)(CC(C)C)N=NC(C)(C)C` [Example VII, 4-tert.-butylazo-4-cyano-2,6-dimethylheptane], the “time to peak exotherm” value was 2.8 min.

Take `CC(C)(C)N=NC(C)(C#N)CCC(=O)O` (stereo not drawn) [Example X, alpha-tert.-butylazo-alpha-methyl-gamma-carboxybutyronitrile]: the peak exotherm stood at 410 ° F and the “time to peak exotherm” value turned out to be 8.5 min.

On to `CC(C)(C#N)N=NC(C)(C)c1ccccc1` [Example XI, Alpha-(tert.-cumylazo)isobutyronitrile], for which the “time to peak exotherm” value was 1.3 min.

In the case of `CC(C)(C)N=NC(=O)C(C)(C)C` [Example XIX, Pivaloyl tert.-butyldiimide], the “time to peak exotherm” value stood at 4.9 min.

Consider `CC(C)(C)N=NC(=O)c1ccccc1` [Example XX, Benzoyl tert.-butyldiimide], for which the “time to peak exotherm” value was found to be 10.0 min.

As for `CC1CC(C)(C)CC(C#N)(N=NC(C)(C)C)C1` (stereo not shown) [VIII, 1-tert.-butylazo-1-cyano-3,3,5-trimethylcyclohexane], the “time to peak exotherm” value was 9.4 min.

Staying with this data set, now noted: 212° F. (100° C.).
With `CC(C)(C)N=NC(C)(C#N)C1CC1` (stereo not drawn) [Example XII, Alpha-tert-butylazo-alpha-cyclopropylpropionitrile], the peak exotherm is listed as 420 ° F and the “time to peak exotherm” value came to 2.1 min.

Consider `CC(C)(C)N=NC(C)(C#N)C(C)(C)C` (stereo not shown) [IX, 2-tert.-butylazo-2-cyano-3,3-dimethylbutane], for which the peak exotherm worked out at 430 ° F and the “time to peak exotherm” value came to 4.9 min.

The same data set, now with this note: 212° F. (100° C.), 0.128 gram in 20 grams of blend.
Consider `CC(C)(C)N=NC(C)(C)C#N` [Example I, Alpha-(tert.-butylazo) isobutyronitrile], for which the “time to peak exotherm” value was determined as 4.9 min.

The data set is the same for the next values; noted with them: 212° F. (100° C.), 1.0 weight per cent loading.
`CC(C)(C)N=NC(C)(C#N)CCC(=O)O` (stereo not drawn) [Example X, alpha-tert.-butylazo-alpha-methyl-gamma-carboxybutyronitrile]: the “time to peak exotherm” value came out at 3.8 min.

`CC(C)(C)N=NC(N)=O` [Example XIII, tert.-butylazoformamide]: the “time to peak exotherm” value came out at 7.1 min.

The data set is the same for the next values; noted with them: 240° F. (115.6° C.), 1.0 weight per cent loading.
In the case of `CC(C)(C)N=NC(N)=O` [Example XIII, tert.-butylazoformamide], the peak exotherm turned out to be 430 ° F and the “time to peak exotherm” value was determined as 5.9 min.

`CC(C)(C)N=NC1(C(N)=O)CCCCC1` [XXIV, 1-tert. butylazo-1-carbamylcyclohexane]: the “time to peak exotherm” value is 6.8 min.

With `CC(C)(C)N=NC(C)(C)C(N)=O` [XXV, 2-t-butylazo-2-carbamylpropane], the “time to peak exotherm” value amounted to 5.7 min.

Still in this data set, the particulars now being: 265° F. (129.4° C.), 1.0 weight per cent loading.
For the compound `CC(C)(C)N=NC(N)=O` [Example XIII, tert.-butylazoformamide], the “time to peak exotherm” value was determined as 4.5 min.

On to `COC(=O)CNC(=O)N=NC(C)(C)C` [XVI, tert.-butylazo-N-carbmethoxymethylformamide], for which the “time to peak exotherm” value turned out to be 5.1 min.

On to `CC(C)(N=NC(N)=O)c1ccccc1` [XVIII, Tert.-cumylazoformamide], for which the “time to peak exotherm” value turned out to be 6.0 min.

Still in this data set, the particulars now being: hardness of the cured resin / gelling.
Turning to `CC(C)(C)N=NC(C)(C)C#N` [Example I, Alpha-(tert.-butylazo) isobutyronitrile], the “cure of the resin, in words” value is “vary hard”.

For `CC(C)CC(C#N)(CC(C)C)N=NC(C)(C)C` [Example VII, 4-tert.-butylazo-4-cyano-2,6-dimethylheptane], the “cure of the resin, in words” value is recorded as “very hard”.

In the case of `CC(C)(C)N=NC(C)(C#N)CCC(=O)O` (stereo not drawn) [Example X, alpha-tert.-butylazo-alpha-methyl-gamma-carboxybutyronitrile], the “cure of the resin, in words” value is on record as “very hard”.

As to `CC(C)(C#N)N=NC(C)(C)c1ccccc1` [Example XI, Alpha-(tert.-cumylazo)isobutyronitrile], the “cure of the resin, in words” value is listed as “very hard”.

`CC(C)(C)N=NC(C)(C#N)C1CC1` (stereo not drawn) [Example XII, Alpha-tert-butylazo-alpha-cyclopropylpropionitrile]: the “cure of the resin, in words” value is given as “very hard”.

As for `CC(C)(C)N=NC(N)=O` [Example XIII, tert.-butylazoformamide], the “cure of the resin, in words” value is on record as “very hard”.

Consider `CC(C)(C)N=NC(=O)C(C)(C)C` [Example XIX, Pivaloyl tert.-butyldiimide], for which the “cure of the resin, in words” value is on record as “very hard”.

With `CC(C)(C)N=NC(=O)c1ccccc1` [Example XX, Benzoyl tert.-butyldiimide], the “cure of the resin, in words” value is on record as “hard”.

Turning to `CC(C)(C)N=NC1(C#N)CCCCC1` [IV, 1-tert.-butylazo-1-cyanocyclohexane], the “cure of the resin, in words” value is “very hard”.

As to `CC(C)(C)N=NC(C)(C#N)C(C)(C)C` (stereo not shown) [IX, 2-tert.-butylazo-2-cyano-3,3-dimethylbutane], the “cure of the resin, in words” value is “very hard”.

As for `CC1CC(C)(C)CC(C#N)(N=NC(C)(C)C)C1` (stereo not shown) [VIII, 1-tert.-butylazo-1-cyano-3,3,5-trimethylcyclohexane], the “cure of the resin, in words” value is listed as “very hard”.

In the case of `CNC(=O)N=NC(C)(C)C` [XIV, tert.-butylazo-N-methylformamide], the “cure of the resin, in words” value is on record as “very hard”.

Turning to `COC(=O)CNC(=O)N=NC(C)(C)C` [XVI, tert.-butylazo-N-carbmethoxymethylformamide], the “cure of the resin, in words” value was “very hard”.

On to `CC(C)(N=NC(N)=O)c1ccccc1` [XVIII, Tert.-cumylazoformamide], for which the “cure of the resin, in words” value was “very hard”.

As to `CC(C)(C)N=NC1=CCCCC1` [XXIII, 1(-tert.-butylazo)cyclohexene], the “cure of the resin, in words” value is on record as “gelled the unsaturated polyester-styrene resin of Example III at room temperature”.
